Laboratory results reported in US10450346B2, “Immunotherapy against several tumors of the blood, in particular chronic lymphoid leukemia (CLL)” (Immatics biotechnologies GmbH, priority 2014, dated 2019).

Key:
[1] = test system: HLA class I ligandome of CLL patients; experiment: Longitudinal HLA class I ligandome analysis over the course of therapy (label-free quantification); format: in vivo, human
[2] = test system: primary CLL samples (PBMC from CLL patients), HLA class I ligands; experiment: HLA class I ligandome analysis by LC-MS/MS (frequency of HLA restricted presentation); set-up: species or system human; settings: for Number of positive CLLs: CLL patient HLA class I ligandomes (n = 30); for Number of positive CLLs (frequency [%]): source protein (LiTAA) representation in CLL patient HLA class I ligandomes (n = 30)

Row | Substance | Number of positive CLLs [2] | other results
1 | ofatumumab |  | detectable LiTAPs showing significant changes in abundance ([1]; post versus pre therapy: rituximab/bendamustin 48 h/24 h, alemtuzumab day 7, ofatumumab 24 h): 20.0%; HLA class I ligands with differential presentation ([1]; ≥2-fold change, p≤0.05, post versus pre therapy, single patients): 21.6%
2 | 184 (IPVVHASI; listed as Homo sapiens) [compound 184] | 1 | 
3 | 30 (ASRQAPPHI; listed as Homo sapiens) [compound 30] | 1 | 
4 | 148 (HVGYTLSYK; listed as Homo sapiens) [compound 148] | 1 | 
5 | 83 (SQTDLVSRL; listed as Homo sapiens) [compound 83] | 1 | 
6 | 204 (KPEPVDKVA; listed as Homo sapiens) [compound 204] | 1 | 
7 | 150 (KPIEPRREL; listed as Homo sapiens) [compound 150] | 1 | 
8 | 75 (SLNQWLVSF; listed as Homo sapiens) [compound 75] | 1 | 
9 | 57 (KVLSWPFLM; listed as Homo sapiens) [compound 57] | 1 | 
10 | 21 (YGYDNVKEY; listed as Homo sapiens) [compound 21] | 7 | 
11 | 98 (LPHSATVTL; listed as Homo sapiens) [compound 98] | 1 | 
12 | 109 (AEEAGGTRL; listed as Homo sapiens) [compound 109] | 1 | 
13 | 23 (RDSPINANLRY; listed as Homo sapiens) [compound 23] | 1 | 
14 | 182 (RDKPHVNV; listed as Homo sapiens) [compound 182] | 1 | 
15 | 138 (RDSIINDF; listed as Homo sapiens) [compound 138] | 2 | 
16 | 137 (KTIAFLLPMF; listed as Homo sapiens) [compound 137] | 1 | 
17 | 59 (SPSRQPQV; listed as Homo sapiens) [compound 59] | 1 | 
18 | 70 (VLLKKAVL; listed as Homo sapiens) [compound 70] | 1 | 
19 | 88 (IVSGQPGTQK; listed as Homo sapiens) [compound 88] | 3 | 
20 | 141 (AETTDNVFTL; listed as Homo sapiens) [compound 141] | 1 | 
21 | 96 (APLQRSQSL; listed as Homo sapiens) [compound 96] | 6 | 
22 | 29 (APASSHERASM; listed as Homo sapiens) [compound 29] | 2 | 

Row | Substance | Number of positive CLLs [2] | other results
23 | 139 (SVKGGGGNEK; listed as Homo sapiens) [compound 139] | 1 | 
24 | 87 (DVAEPYKVY; listed as Homo sapiens) [compound 87] | 1 | 
25 | 140 (GIAKTGSGK; listed as Homo sapiens) [compound 140] | 1 | 
26 | 224 (RELESQLHVL; listed as Homo sapiens) [compound 224] | 2 | 
27 | 104 (LSQEVCRD; listed as Homo sapiens) [compound 104] | 2 | 
28 | 169 (AELERQAVL; listed as Homo sapiens) [compound 169] | 1 | 
29 | 90 (VELFRTAYF; listed as Homo sapiens) [compound 90] | 1 | 
30 | 102 (FSITKSVEL; listed as Homo sapiens) [compound 102] | 4 | 
31 | 151 (SHSHVGYTL; listed as Homo sapiens) [compound 151] | 3 | 
32 | 74 (LSEQTSVPL; listed as Homo sapiens) [compound 74] | 1 | 
33 | 115 (LIRPVSASF; listed as Homo sapiens) [compound 115] | 3 | 
34 | 84 (VPVPHTTAL; listed as Homo sapiens) [compound 84] | 7 | 
35 | 103 (GQTKNDLVV; listed as Homo sapiens) [compound 103] | 1 | 
36 | 185 (RDSLIDSLT; listed as Homo sapiens) [compound 185] | 1 | 
37 | 177 (TLLVVVPKL; listed as Homo sapiens) [compound 177] | 6 | 
38 | 216 (DIKEVKQNI; listed as Homo sapiens) [compound 216] | 3 | 
39 | 131 (KPTSARSGL; listed as Homo sapiens) [compound 131] | 2 | 
40 | 174 (EEEEALQKKF; listed as Homo sapiens) [compound 174] | 1 | 
41 | 31 (AVKKNPGIAA; listed as Homo sapiens) [compound 31] | 2 | 
42 | 60 (SRHQSFTTK; listed as Homo sapiens) [compound 60] | 3 | 
43 | 165 (ELNKLLEEI; listed as Homo sapiens) [compound 165] | 3 | 
44 | 52 (RTRDYASLPPK; listed as Homo sapiens) [compound 52] | 1 | 

Row | Substance | Number of positive CLLs [2] | other results
45 | 202 (SPAPRTAL; listed as Homo sapiens) [compound 202] | 6 | 
46 | 206 (DETQVRSLY; listed as Homo sapiens) [compound 206] | 2 | 
47 | 53 (APGSVLPRAL; listed as Homo sapiens) [compound 53] | 3 | 
48 | 176 (VYKENLVDGF; listed as Homo sapiens) [compound 176] | 2 | 
49 | 134 (SVKPTSATK; listed as Homo sapiens) [compound 134] | 4 | 
50 | 152 (APSEYRYTL; listed as Homo sapiens) [compound 152] | 1 | 
51 | 39 (AAVRIGSVL; listed as Homo sapiens) [compound 39] | 2 | 
52 | 45 (DELPKFHQY; listed as Homo sapiens) [compound 45] | 2 | 
53 | 110 (ENVNKKDY; listed as Homo sapiens) [compound 110] | 1 | 
54 | 55 (DSAGPQDAR; listed as Homo sapiens) [compound 55] | 1 | 
55 | 195 (RQSLLTAI; listed as Homo sapiens) [compound 195] | 1 | 
56 | 41 (GAAVRIGSVL; listed as Homo sapiens) [compound 41] | 1 | 
57 | 225 (SEAEKLTLV; listed as Homo sapiens) [compound 225] | 1 | 
58 | 36 (RPKNLMQTL; listed as Homo sapiens) [compound 36] | 3 | 
59 | 144 (NENLVERF; listed as Homo sapiens) [compound 144] | 2 | 
60 | 145 (KITVPASQK; listed as Homo sapiens) [compound 145] | 1 | 
61 | 164 (SEETFRFEL; listed as Homo sapiens) [compound 164] | 1 | 
62 | 173 (APRKGNTL; listed as Homo sapiens) [compound 173] | 1 | 
63 | 205 (TPSSRPASL; listed as Homo sapiens) [compound 205] | 4 | 
64 | 40 (ERAGVVREL; listed as Homo sapiens) [compound 40] | 1 | 
65 | 25 (RPIINTPMV; listed as Homo sapiens) [compound 25] | 1 | 
66 | 49 (KPRQSSPQL; listed as Homo sapiens) [compound 49] | 3 | 

Row | Substance | Number of positive CLLs [2] | other results
67 | 105 (RDIQSPEQI; listed as Homo sapiens) [compound 105] | 1 | 
68 | 222 (QSTQRSLAL; listed as Homo sapiens) [compound 222] | 2 | 
69 | 48 (IKVSKQLL; listed as Homo sapiens) [compound 48] | 1 | 
70 | ATP-binding cassette, sub-family A (ABC1), member 6 [ABCA6] | 10 | Number of positive CLLs (frequency [%]) [2]: 33.3%
71 | 208 (LEQKVVELY; listed as Homo sapiens) [compound 208] | 2 | 
72 | 94 (SPWWRSSL; listed as Homo sapiens) [compound 94] | 1 | 
73 | 136 (ISMKILNSL; listed as Homo sapiens) [compound 136] | 2 | 
74 | 113 (SASVQRADTSL; listed as Homo sapiens) [compound 113] | 5 | 
75 | 68 (THHIPDAKL; listed as Homo sapiens) [compound 68] | 1 | 
76 | 196 (SPEQTLSPL; listed as Homo sapiens) [compound 196] | 1 | 
77 | 61 (SSHNASKTL; listed as Homo sapiens) [compound 61] | 2 | 
78 | 111 (GLDPNKPPEL; listed as Homo sapiens) [compound 111] | 4 | 
79 | 43 (LYELHVFTF; listed as Homo sapiens) [compound 43] | 2 | 
80 | 10 (TPFTAIREA; listed as Homo sapiens) [compound 10] | 1 | 
81 | 51 (RRKDLVLKY; listed as Homo sapiens) [compound 51] | 2 | 
82 | Dmx-like 1 [DMXL1] | 10 | Number of positive CLLs (frequency [%]) [2]: 33.3%
83 | 18 (DALLKRTM; listed as Homo sapiens) [compound 18] | 1 | 
84 | 85 (YQVLDVQRY; listed as Homo sapiens) [compound 85] | 1 | 
85 | 8 (KVNGKLVALK; listed as Homo sapiens) [compound 8] | 1 | 
86 | 180 (YWVPRNAL; listed as Homo sapiens) [compound 180] | 2 | 
87 | 172 (TPIREQHVL; listed as Homo sapiens) [compound 172] | 3 | 
